Values from PubChem BioAssay AID1224826 (NIAID, 2016).

Aim: 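Regulators of Tlr4 signalling leading to Tnf-alpha expression in macrophages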 (primary screen)
System: RAW264.7 G9 macrophages from mouse bearing reporters for p65 (GFP) and the Tnf promoter (mCherry)
Knock-down reagent: siRNA pool against mouse genes, 100 nM
Time to read-out: 16 h of LPS stimulation, after 2 days of siRNA transfection
Conditions: bacterial lipopolysaccharide (Salmonella minnesota R595), 10 ng/ml
Read-out: 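Imaged Tnf reporter mCherry in nuclei, minus background, normalised per plate to the median and expressed as robust z-scores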
Direction: Tnf reporter robust z-score: higher = stronger Tnf promoter reporter signal after LPS
Active means: 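Called active when robust z-score is at most -1.3, matching the median of the Tlr4 knock-down control, or over 3; control wells and wells with under 50 cells never active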
Calls: active = Tnf reporter clearly lowered or raised; inactive = no clear change in Tnf reporter
The whole screen tested about 17,000 reagents; shown is an unselected part. In the full data, about 1,110 (6.6%) were called active. 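Active means lowered or raised reporter signal; replicate intensities are raw and not normalised per plate.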 Reagents against one gene are numbered here. Further read-outs or replicates are left out here.

What is on record for Gpcpd1?
fewer than 50 cells in well: fewer than 50 cells per well; well left out of calls; call: inactive

With Sst, how do the results read?
Tnf reporter robust z-score: 0.43; fewer than 50 cells in well: enough cells in well; call: inactive

With Or6c69, what does the deposit list?
Tnf reporter robust z-score: 1.27; fewer than 50 cells in well: enough cells in well; call: inactive

What is on record for Mia?
Tnf reporter robust z-score: 0.02; fewer than 50 cells in well: enough cells in well; call: inactive

What did the screen give for Spata18?
Tnf reporter robust z-score: 2.09; fewer than 50 cells in well: enough cells in well; call: inactive

For Paqr4, how do the results read?
Tnf reporter robust z-score: -1.48; fewer than 50 cells in well: enough cells in well; call: active

How did the screen score Vsx1?
Tnf reporter robust z-score: 0.09; fewer than 50 cells in well: enough cells in well; call: inactive

Which result is listed for Lgr4?
Tnf reporter robust z-score: 0.41; fewer than 50 cells in well: enough cells in well; call: inactive

What is on record for Defa21?
fewer than 50 cells in well: fewer than 50 cells per well; well left out of calls; call: inactive

Which result is listed for Ak1?
Tnf reporter robust z-score: 2.15; fewer than 50 cells in well: enough cells in well; call: inactive

For Rai2, what was measured?
Tnf reporter robust z-score: -1.21; fewer than 50 cells in well: enough cells in well; call: inactive

How did the screen score Nup62?
Tnf reporter robust z-score: 0.4; fewer than 50 cells in well: enough cells in well; call: inactive

What did the screen give for Pcnx2 #1?
Tnf reporter robust z-score: -0.36; fewer than 50 cells in well: enough cells in well; call: inactive

For Pcnx2 #2, what was measured?
Tnf reporter robust z-score: -0.84; fewer than 50 cells in well: enough cells in well; call: inactive

2 entries from above, set out differently.
{"gene":"Ak1","reagent no.":1,"Tnf reporter robust z-score":2.15,"fewer than 50 cells in well":"enough cells in well","call":"inactive"}
{"gene":"Rai2","reagent no.":1,"Tnf reporter robust z-score":-1.21,"fewer than 50 cells in well":"enough cells in well","call":"inactive"}
